# Out of some 320,000 compounds screened, about 2,100 (0.66%) were called active. Inconclusive means that the source gave no clear call. Such entries were picked first, then a sample of the others. Calls come from the whole dose curve; as a rule, active = well fitted inhibition curve with a large enough effect in the signal ratio, with a control signal flat (not every such curve was filed as active); inconclusive = small, poorly fitted or top-dose-only effect, or effect the other way, or a change in a side signal; inactive = flat fitted curve, though single readings scatter; the % refers to the signal ratio. Potencies beside an inconclusive call are fits to weak or partial responses and may not hold up.
# Experiment: qHTS Assay for Lipid Storage Modulators in Drosophila S3 Cells
# Conditions: BODIPY lipid droplet fluorescence, 18-24 h, cells fed with added oleic acid; lipid storage change, negative = inhibition: at 46.1 µM (top of the series) unless noted
# Procedure, shortened: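 Laser-scanning cytometry quantifies lipid droplet accumulation (500–530 nm total intensity; droplet/cell object ratio) in oleic acid-fed (400 uM added) Drosophila S3 cells treated with a concentration series. 20 uM Triacsin C defined 100% inhibition.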
# % is set by controls: 0 for no effect and ±100 for the full control effect; potency is the fitted concentration of half-maximal effect.
SMILES,Potency,"lipid storage change, negative = inhibition"
COc1cccc(CN2CCC(C(=O)Nc3ccc(Oc4cccnc4)cc3)CC2)c1,"inconclusive: 6.51 µM [activator, single point]",–
COc1cc(CNc2ccc3[nH]c(=O)[nH]c3c2)ccc1OCc1ccccc1Cl,–,inconclusive: -15.6%
Cc1ccc(C(=O)CCC(=O)Nc2ncccc2O)cc1,–,inconclusive
O=C(NCCc1c[nH]c2ccccc12)c1cncc(Br)c1,"inconclusive: 18.4 µM [falling, single point]",–
CCc1ccc(N2CC(C(=O)Nc3ccc(S(=O)(=O)Nc4ncccn4)cc3)CC2=O)cc1 (stereo not drawn),–,inconclusive: 55.2%
COc1ccc(CCNc2cc(C)nc3c(-c4ccc(Cl)cc4)cnn23)cc1OC,"inconclusive: 0.259 µM [falling, full curve]",–
O=C(O)CSc1nnc(Cn2c(=O)sc3ccccc32)n1-c1cccc(Cl)c1,–,inconclusive: -1.09%
COc1ccc(C(CC(=O)N2CCOCC2)c2c(OC)cc(OC)c3c(-c4ccccc4)cc(=O)oc23)cc1 (stereo not drawn),–,inconclusive: -1.76%
C/C(CC(=O)Nc1c(C)cc(C)cc1C)=N\NC(=O)Cc1ccccc1,"inconclusive: 29.1 µM [falling, single point]",–
Cc1ccc(C(=O)NC2CCN(C(=O)N3CCOCC3)CC2)cc1,–,inconclusive: -2.74%
c1ccc(-c2nnc(SCc3nc4ccccc4[nH]3)o2)cc1,–,inconclusive: 2.07%
Cc1noc(C)c1COc1cccc(C(=O)OC(C)C(=O)Nc2ccc3c(c2)OCO3)c1 (stereo not drawn),"inconclusive: 4.61 µM [activator, partial curve]",–
O=C(COc1ccc(F)cc1)OCCN1CCOCC1,–,inconclusive: -2.3%
CCOc1ccc(N=C(C)C2=C(O)c3ccccc3C2=O)cc1,–,inconclusive: 8.55%
Cn1c(SCC(=O)Nc2cc([N+](=O)[O-])ccc2F)nnc1C(F)(F)F,–,inconclusive: -56.2%
O=S(=O)(NC1CC2CCC1C2)c1ccc(Cl)cc1 (stereo not drawn),–,inconclusive: 4.44%
CCS(=O)(=O)N1Cc2ccccc2CC1C(=O)Nc1ccc(OC)c(OC)c1 (stereo not drawn),"inconclusive: 0.164 µM [activator, single point]",–
CCc1cc2c(=O)c(-c3nc4ccccc4n3C)c(COCC(=O)O)oc2cc1OC(=O)C(C)(C)C,"inconclusive: 1.46 µM [falling, partial curve]",–
CN(C)CCOc1ccccc1-c1ccccc1,active: 23.1 µM,–
N=C1N(/N=C/c2ccccc2)C(=Nc2ccccc2)C(=S)N1c1ccccc1,–,inconclusive: -13.8%
COc1cc(C(=S)N2CCCCC2)ccc1O,"inconclusive: 3.66 µM [falling, full curve, poor fit]",–
Cc1cc(C)c2c(c1)NC(=O)C2(O)CC(=O)c1cccs1 (stereo not drawn),"inconclusive: 4.11 µM [activator, single point]",–
O=C(NC1CCCCCC1)c1ccc(OCC2CCCO2)cc1 (stereo not drawn),–,inconclusive: -68.5%
CC1=C(C(=O)OC(C)C)C(c2cccs2)C(C(=O)OC(C)C)=C(C)N1,–,inconclusive: -19.1%
O=C(CCN1C(=O)/C(=C/c2ccccc2Cl)SC1=S)Nc1ccccn1,active: 20.6 µM,–
O=C(c1cc(Br)c[nH]1)N1CCSCC1,–,inconclusive: -17.8%

SMILES,Potency,"lipid storage change, negative = inhibition"
CC(=O)Nc1ccc(S(=O)(=O)NCCC(=O)NNC(=O)c2ccccc2O)cc1,"inconclusive: 14.6 µM [activator, partial curve, poor fit]",–
CCN(CC)S(=O)(=O)c1ccc(NC(=O)CSc2ncnc3ccccc23)cc1,–,inconclusive: -5.37%
COc1ccccc1CNC(=O)COC(=O)c1ncc(Cl)c(Cl)c1Cl,–,inconclusive: -2.68%
O=C(O)c1cccc2c3c([nH]c12)CCCC3,–,inactive
CC(=O)C1=C(O)C(=O)N(c2nnn(C)n2)C1c1cccs1 (stereo not drawn),–,inconclusive: -1.02% [at 9.22 µM]
O=C(OCc1cccc2ccccc12)c1ccc2c(=O)[nH]c(CN3CCOCC3)nc2c1,–,inconclusive: 18.3%
COc1ccc(-c2oc3c(OC)c(OC)c(OC)c(O)c3c(=O)c2OC)cc1OC,"inconclusive: 20.6 µM [cytotoxic, partial curve]",–
Cc1cccc(C)c1NC(=O)Cn1cc(C=O)c2ccccc21,–,inconclusive: -28.1%
Cc1ccc2nc(-c3ccc(O)cc3)oc2c1,–,inconclusive: 45.8%
O=C(CSC1=NS(=O)(=O)c2ccccc2N1)NCCc1ccccc1,–,inconclusive: 7%
COc1cccc(-c2nnc(SCC(=O)NC3CCS(=O)(=O)C3)n2C)c1 (stereo not drawn),"inconclusive: 1.46 µM [activator, partial curve]",–
Cc1ccc(S(=O)(=O)N(C)C)cc1NC(=O)COC(=O)c1sc2cc(Cl)ccc2c1Cl,active: 1.46 µM,–
COc1ccc(N(CC(=O)NCCSCc2ccco2)S(=O)(=O)c2ccccc2)cc1OC,–,inconclusive: 3.81%
CC(=O)c1cc2c(cc1NC(=O)Cn1cnc3ccccc3c1=O)OCO2,"inconclusive: 29.1 µM [activator, single point]",–
O=c1c(-c2ccccc2)c(O)nc2ccccn12,–,inconclusive: 12.8%
CCN(CC)CCNc1nc(-c2ccccc2)c2c(c1C#N)CC(C)(C)OC2,–,inconclusive: 4.26%
COCCCNC(=O)c1ccc(Cn2c(=O)c3ccccc3n(CC(=O)NCc3ccco3)c2=O)cc1,–,inconclusive: 24.5%
COc1ccc(C2CC3(CC(C)(C)NC(=S)N3)Oc3cc(O)cc(C)c32)cc1OC (stereo not drawn),–,inconclusive: -2.34%
Nc1c(NCc2ccccc2F)c(=O)[nH]c(=O)n1Cc1ccccc1,"inconclusive: 23.1 µM [activator, single point]",–
Cn1c(-c2ccccc2)nc2cnccc21,–,inconclusive: 10%
CCOC(=O)C1(Cc2ccc(Cl)cc2)CCN(C2CCC2)CC1,–,inconclusive: 8.97%
O=C(Cn1cncn1)NCCC(c1ccccc1)c1ccccc1,–,inconclusive: -8.24%
O=C(Cn1cc([N+](=O)[O-])ccc1=O)NCC1COc2ccccc2O1 (stereo not drawn),–,inconclusive: 6.69%
O=C(c1c(F)cccc1F)N(Cc1ccccn1)C1CC1,"inconclusive: 29.1 µM [falling, single point]",–
CC(C)[C@H](NC(=O)C1CCN(S(=O)(=O)c2ccc(F)cc2)CC1)C(=O)N1CCCC1,–,inconclusive: -29.5%
O=C(CSc1nc2[nH]ncc2c(=O)[nH]1)NCc1ccc(F)cc1,–,inconclusive: 37.2% [activator]

SMILES,Potency,"lipid storage change, negative = inhibition"
COc1ccc(OC)c(/C=N/N(CCC#N)C2=NS(=O)(=O)c3ccccc32)c1,–,inconclusive: 12.6%
CC1=NN(C(=O)c2cc(C)nn2C)C(O)(C(F)(F)F)C1 (stereo not drawn),–,inconclusive: -0.674%
O=S(=O)(NCc1cccc(C(F)(F)F)c1)NCc1ccccc1F,–,inconclusive: 46.5%
Cc1ccc(S(=O)(=O)N[C@@H](CC(C)C)C(=O)N2CCC(C(=O)N[C@@H](Cc3ccccc3)C(=O)O)CC2)cc1,–,inconclusive: -15.1%
CCCCN(C)CCNS(=O)(=O)c1ccc2c(c1)n(C)c(=O)c(=O)n2C,–,inconclusive: 4.53%
CC(=O)c1cc(C#N)c(NCCCN(C)C)nc1C,"inconclusive: 0.103 µM [falling, full curve, poor fit]",–
O=C(CCCCCn1c(=S)[nH]c2ccc(Br)cc2c1=O)NCC1CCCO1 (stereo not drawn),–,inconclusive: -20.2%
O=C(Nc1ccc2nc[nH]c2c1)c1ccco1,–,inconclusive: 10.5%
COc1ccc(CC(NC(C)=O)C(=O)NC2CCN(C(=O)C3CCCCC3)CC2)cc1OC (stereo not drawn),–,inconclusive: 81.1%
CCn1c(/C=C/c2ccc(F)cc2)nc2ccccc2c1=O,–,inconclusive: -7.45%
O=C1c2ccncc2C(=O)N1C1CCCCC1,–,inconclusive: -7.49%
S=C(Nc1cccc2ccccc12)NC1CCCCC1,–,inconclusive: 12.7%
COc1ccc(OC)c(NS(=O)(=O)c2cc(OC)ccc2OC)c1,"inconclusive: 6.51 µM [activator, partial curve]",–
C=CCn1c(N)cc(=O)nc1SCC(=O)NC(C)c1ccccc1 (stereo not drawn),–,inconclusive: 10.3%
COc1cccc(CN2CCN(C3CCN(c4ccccc4C)CC3)CC2CCO)c1 (stereo not drawn),–,inactive
CCC(C)NS(=O)(=O)c1ccc(OCC(=O)NCc2cccnc2)cc1 (stereo not drawn),–,inconclusive: 91.6%
O=C(NCCOc1ccc(Cl)cc1)c1ccco1,–,inconclusive: 56.2%
Cc1ccc(C)c(Cn2nnc3c(=O)[nH]c(C4CCCN(C(=O)c5ccco5)C4)nc32)c1 (stereo not drawn),"inconclusive: 6.51 µM [activator, partial curve]",–
COC(=O)[C@@H](NC(=O)NC(C)CCc1ccccc1)C(C)C (stereo partly drawn),–,inconclusive: 11%
CC(=O)Nc1ccc(S(=O)(=O)N2CCC(C(N)=O)(N3CCCCC3)CC2)cc1,–,inconclusive: 24.1%
CC(=O)Nc1ccc(S(=O)(=O)N2CCN(c3cccc(C)c3C)CC2)cc1,"inconclusive: 0.0046 µM [rising, full curve, poor fit]",–
CC1CCN(c2ccc3nnc(CCC(=O)N4CCN(c5ccccc5F)CC4)n3n2)CC1,"inconclusive: 29.1 µM [falling, single point]",–
CS(=O)(=O)c1ccc(Cl)c(NC(=O)COc2ccc3c(c2)CCC3)c1,"inconclusive: 1.46 µM [activator, partial curve, poor fit]",–
CC(C)c1ccc(OCC(=O)Nc2ccccc2C(=O)N2CCOCC2)cc1,–,inconclusive: 34.5%
CN(c1ccccc1)S(=O)(=O)c1ccc(NC(=O)c2cccs2)cc1,–,inconclusive: 8.45%
O=C(CNC1CCCC1)Nc1cc(Cl)ccc1[N+](=O)[O-],–,inconclusive: 1.1%

# Reformatted: 6 of the compounds above.
SMILES | Potency | lipid storage change, negative = inhibition
CCCCN(C)CCNS(=O)(=O)c1ccc2c(c1)n(C)c(=O)c(=O)n2C | – | inconclusive: 4.53%
CC(=O)c1cc(C#N)c(NCCCN(C)C)nc1C | inconclusive: 0.103 µM [falling, full curve, poor fit] | –
O=C(CCCCCn1c(=S)[nH]c2ccc(Br)cc2c1=O)NCC1CCCO1 (stereo not drawn) | – | inconclusive: -20.2%
O=C(Nc1ccc2nc[nH]c2c1)c1ccco1 | – | inconclusive: 10.5%
COc1ccc(CC(NC(C)=O)C(=O)NC2CCN(C(=O)C3CCCCC3)CC2)cc1OC (stereo not drawn) | – | inconclusive: 81.1%
CCn1c(/C=C/c2ccc(F)cc2)nc2ccccc2c1=O | – | inconclusive: -7.45%
